# Reference: patent US20250177532A1, “TEMPERATURE-SENSITIVE HYDROGEL FOR CANCER TREATMENT CAPABLE OF PHOTOTHERMAL THERAPY AND PREPARATION METHOD THEREFOR” (KOREA NATIONAL UNIVERSITY OF TRANSPORTATION …, priority 2022, published 2025)
# Assay: Nitric oxide release from NO donors under near-infrared laser (Griess assay)
# Assay type: physicochemical
# Conditions: 808 nm, 1.5 W/cm^2
smiles,measurement,value
"N[C@@H](CSN=O)C(=O)O [CysNO, S-nitrosocysteine]",NO release with/without laser (Griess assay at different time points),NO release will continue only after Laser irradiation
